For at least one compound, name, drawing or mass did not settle the structure.
Experiments:
[1] = Aerosolization of compounds added to smoking tobacco (filter capture, HPLC); assay type: physicochemical; conditions: lit cigarette, alone or mixed with erlotinib
inflammation = conditions: applied systemically or topically; cited from earlier work
[2] = system: pancreatic carcinogenesis; conditions: in the context of inflammation of the pancreas (chronic pancreatitis); cited from earlier work

Row | SMILES | aerosolization when added to smoking tobacco [1] | effect on inflammation (inflammation) | effect on pancreatic carcinogenesis [2]
1 | CCOP(=O)(OCC)OCCCCOC(=O)C(C)c1ccc(CC(C)C)cc1 (stereo not drawn) [phospho-ibuprofen 132, phospho-ibuprofen] | aerosolized successfully | eliminated or greatly reduced inflammation | 
2 | CCCC(CCC)C(=O)OCCCCOP(=O)(OCC)OCC [phospho-valproic acid 134, phospho-valproic acid] |  |  | inhibited pancreatic carcinogenesis

— patent US20140088045A1, “PRODUCT COMPRISING A NICOTINE-CONTAINING MATERIAL AND AN ANTI-CANCER AGENT” (priority 2012, published 2014)
